{
  "source": "patent US5925730A",
  "about": "(Ferring BV, priority 1997, dated 1999)",
  "experiment": "general procedure: Boc solid-phase peptide synthesis; MBHA resin (Bachem), 0.54 mmol/g; DIC/HOBt",
  "conditions": "whole synthesis, capillary zone electrophoresis (CZE), scale of the general procedure about 0.50 gram of resin",
  "note": "Strings that start with PEPTIDE1 are HELM notation: dots part the residues, brackets hold end groups and non-standard residues.",
  "data": [
    {"substance": "PEPTIDE1{[ac].[D-2Nal].[D-4Cpa].[D-3Pal].S.[4Aph(Hor)].[D-4Aph(Cbm)].L.[ILys].P.[dA].[am]}$$$$V2.0", "values": [
      {"measurement": "final purity (method not given)", "value": "about 98%"}
    ]},
    {"substance": "Ac-β-D-2Nal-D-4Cpa-D-3Pal-Ser-4Aph(hydroorotyl)-D-4Amf(carbamoyl)-Leu-Lys(isopropyl)-Pro-D-Ala-NH2", "values": [
      {"measurement": "final purity (method not given)", "value": "greater than 99%"}
    ]}
  ]
}
